Some of the results follow. Small differences around the control level are noise.
These targets were tested with CN[C@@H]1C[C@H]2O[C@@](C)([C@@H]1OC)n1c3ccccc3c3c4c(c5c6ccccc6n2c5c31)C(=O)NC4 [staurosporine] (assay: log2 fold change of tryptic peptide abundance, ligand vs vehicle (limited proteolysis) (log2 ratio); higher = more trypsin-susceptible (destabilized)). Settings: ligand concentration: 20 uM; sample: mouse liver crude lysate; replicate design: treated separately.

Amino acid sequences for entries named in this document (tags omitted). A change or cut given only in a name is not applied to a line headed by its entry.
UniProt O35286: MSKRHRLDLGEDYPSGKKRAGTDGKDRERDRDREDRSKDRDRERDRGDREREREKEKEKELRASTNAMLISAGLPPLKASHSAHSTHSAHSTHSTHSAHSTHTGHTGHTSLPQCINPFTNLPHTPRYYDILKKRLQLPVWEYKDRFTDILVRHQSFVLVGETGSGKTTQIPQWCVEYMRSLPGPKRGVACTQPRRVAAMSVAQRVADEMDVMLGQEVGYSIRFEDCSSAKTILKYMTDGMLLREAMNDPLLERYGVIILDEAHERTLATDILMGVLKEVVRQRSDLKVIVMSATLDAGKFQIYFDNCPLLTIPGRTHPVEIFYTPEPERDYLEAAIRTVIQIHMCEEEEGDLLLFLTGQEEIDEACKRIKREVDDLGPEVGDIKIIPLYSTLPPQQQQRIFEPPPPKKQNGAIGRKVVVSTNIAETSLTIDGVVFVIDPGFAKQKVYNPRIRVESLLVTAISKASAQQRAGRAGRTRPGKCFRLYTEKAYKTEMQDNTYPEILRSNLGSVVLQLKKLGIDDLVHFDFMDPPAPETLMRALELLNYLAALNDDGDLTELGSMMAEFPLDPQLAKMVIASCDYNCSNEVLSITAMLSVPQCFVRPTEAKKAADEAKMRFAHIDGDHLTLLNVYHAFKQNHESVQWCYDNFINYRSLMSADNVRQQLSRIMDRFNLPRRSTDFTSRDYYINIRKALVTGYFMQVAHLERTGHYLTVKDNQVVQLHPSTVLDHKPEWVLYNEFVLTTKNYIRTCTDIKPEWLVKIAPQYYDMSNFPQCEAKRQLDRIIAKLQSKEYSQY
UniProt G3X982: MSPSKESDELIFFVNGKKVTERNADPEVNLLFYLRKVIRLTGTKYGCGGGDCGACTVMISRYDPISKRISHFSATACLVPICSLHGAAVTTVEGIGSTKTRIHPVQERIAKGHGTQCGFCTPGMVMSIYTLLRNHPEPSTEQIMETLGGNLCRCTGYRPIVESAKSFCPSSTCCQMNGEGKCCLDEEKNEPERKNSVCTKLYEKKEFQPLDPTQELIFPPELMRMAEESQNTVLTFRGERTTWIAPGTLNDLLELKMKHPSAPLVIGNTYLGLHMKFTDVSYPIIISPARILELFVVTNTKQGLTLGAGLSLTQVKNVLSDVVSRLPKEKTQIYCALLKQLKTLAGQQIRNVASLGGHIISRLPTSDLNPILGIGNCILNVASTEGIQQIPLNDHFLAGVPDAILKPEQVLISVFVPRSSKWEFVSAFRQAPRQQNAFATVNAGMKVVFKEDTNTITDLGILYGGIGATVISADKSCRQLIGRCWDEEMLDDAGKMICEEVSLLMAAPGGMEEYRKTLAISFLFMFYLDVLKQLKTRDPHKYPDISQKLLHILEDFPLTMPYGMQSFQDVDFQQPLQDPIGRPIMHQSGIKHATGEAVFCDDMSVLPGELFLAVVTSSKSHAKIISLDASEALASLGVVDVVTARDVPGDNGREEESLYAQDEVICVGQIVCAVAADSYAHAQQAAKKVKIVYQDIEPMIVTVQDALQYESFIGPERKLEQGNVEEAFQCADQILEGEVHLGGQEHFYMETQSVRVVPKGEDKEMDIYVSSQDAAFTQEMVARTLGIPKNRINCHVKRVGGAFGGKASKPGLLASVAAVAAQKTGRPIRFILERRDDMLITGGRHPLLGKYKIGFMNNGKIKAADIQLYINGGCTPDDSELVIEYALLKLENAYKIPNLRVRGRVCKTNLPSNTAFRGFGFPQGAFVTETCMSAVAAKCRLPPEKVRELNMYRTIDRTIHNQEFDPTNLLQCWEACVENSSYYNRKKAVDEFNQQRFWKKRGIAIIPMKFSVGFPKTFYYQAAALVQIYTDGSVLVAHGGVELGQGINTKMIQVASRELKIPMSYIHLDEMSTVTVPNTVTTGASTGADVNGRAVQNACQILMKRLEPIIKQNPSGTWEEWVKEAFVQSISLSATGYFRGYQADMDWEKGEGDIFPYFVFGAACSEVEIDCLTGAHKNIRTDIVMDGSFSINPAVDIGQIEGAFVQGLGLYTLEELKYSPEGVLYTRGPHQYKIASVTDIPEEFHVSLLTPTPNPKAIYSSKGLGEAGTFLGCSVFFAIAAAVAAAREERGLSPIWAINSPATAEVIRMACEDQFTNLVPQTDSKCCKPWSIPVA
UniProt O09106, whole entry: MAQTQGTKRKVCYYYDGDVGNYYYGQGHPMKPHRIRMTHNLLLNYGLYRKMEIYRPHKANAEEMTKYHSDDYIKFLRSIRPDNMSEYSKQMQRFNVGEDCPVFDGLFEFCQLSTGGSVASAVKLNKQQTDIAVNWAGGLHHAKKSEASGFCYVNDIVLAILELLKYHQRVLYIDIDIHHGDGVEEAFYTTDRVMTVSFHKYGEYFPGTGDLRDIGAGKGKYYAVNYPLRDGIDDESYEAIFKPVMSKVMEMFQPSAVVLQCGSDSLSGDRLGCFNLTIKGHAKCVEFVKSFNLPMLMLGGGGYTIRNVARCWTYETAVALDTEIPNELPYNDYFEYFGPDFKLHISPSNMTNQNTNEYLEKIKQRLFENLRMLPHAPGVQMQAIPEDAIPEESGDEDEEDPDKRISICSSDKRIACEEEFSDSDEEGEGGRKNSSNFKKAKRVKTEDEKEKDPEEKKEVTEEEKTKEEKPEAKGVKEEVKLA
UniProt O08755: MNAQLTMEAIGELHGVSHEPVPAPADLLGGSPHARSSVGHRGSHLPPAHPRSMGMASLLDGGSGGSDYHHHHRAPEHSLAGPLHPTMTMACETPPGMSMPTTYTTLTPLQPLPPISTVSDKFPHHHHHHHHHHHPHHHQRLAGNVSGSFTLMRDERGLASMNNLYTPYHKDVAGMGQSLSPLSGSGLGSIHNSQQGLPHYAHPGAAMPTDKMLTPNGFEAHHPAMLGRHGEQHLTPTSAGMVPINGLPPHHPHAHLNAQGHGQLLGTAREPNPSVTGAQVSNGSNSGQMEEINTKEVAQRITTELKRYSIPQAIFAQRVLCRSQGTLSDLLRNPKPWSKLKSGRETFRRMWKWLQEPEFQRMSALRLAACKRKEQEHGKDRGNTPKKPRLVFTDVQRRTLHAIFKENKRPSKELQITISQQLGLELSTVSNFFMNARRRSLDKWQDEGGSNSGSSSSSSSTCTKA
UniProt O09100: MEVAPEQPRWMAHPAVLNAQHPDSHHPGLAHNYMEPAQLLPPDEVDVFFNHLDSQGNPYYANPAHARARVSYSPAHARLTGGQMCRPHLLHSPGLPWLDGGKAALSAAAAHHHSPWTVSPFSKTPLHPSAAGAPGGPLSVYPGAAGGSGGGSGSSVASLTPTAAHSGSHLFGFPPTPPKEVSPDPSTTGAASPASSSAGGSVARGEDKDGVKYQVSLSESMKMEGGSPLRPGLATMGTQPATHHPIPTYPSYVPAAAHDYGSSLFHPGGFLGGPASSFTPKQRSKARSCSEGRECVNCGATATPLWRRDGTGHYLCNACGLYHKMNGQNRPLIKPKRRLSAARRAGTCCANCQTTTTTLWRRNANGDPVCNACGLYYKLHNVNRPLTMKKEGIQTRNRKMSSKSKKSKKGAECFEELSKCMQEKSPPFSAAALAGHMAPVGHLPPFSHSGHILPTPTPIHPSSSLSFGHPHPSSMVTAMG
UniProt F6ZDS4: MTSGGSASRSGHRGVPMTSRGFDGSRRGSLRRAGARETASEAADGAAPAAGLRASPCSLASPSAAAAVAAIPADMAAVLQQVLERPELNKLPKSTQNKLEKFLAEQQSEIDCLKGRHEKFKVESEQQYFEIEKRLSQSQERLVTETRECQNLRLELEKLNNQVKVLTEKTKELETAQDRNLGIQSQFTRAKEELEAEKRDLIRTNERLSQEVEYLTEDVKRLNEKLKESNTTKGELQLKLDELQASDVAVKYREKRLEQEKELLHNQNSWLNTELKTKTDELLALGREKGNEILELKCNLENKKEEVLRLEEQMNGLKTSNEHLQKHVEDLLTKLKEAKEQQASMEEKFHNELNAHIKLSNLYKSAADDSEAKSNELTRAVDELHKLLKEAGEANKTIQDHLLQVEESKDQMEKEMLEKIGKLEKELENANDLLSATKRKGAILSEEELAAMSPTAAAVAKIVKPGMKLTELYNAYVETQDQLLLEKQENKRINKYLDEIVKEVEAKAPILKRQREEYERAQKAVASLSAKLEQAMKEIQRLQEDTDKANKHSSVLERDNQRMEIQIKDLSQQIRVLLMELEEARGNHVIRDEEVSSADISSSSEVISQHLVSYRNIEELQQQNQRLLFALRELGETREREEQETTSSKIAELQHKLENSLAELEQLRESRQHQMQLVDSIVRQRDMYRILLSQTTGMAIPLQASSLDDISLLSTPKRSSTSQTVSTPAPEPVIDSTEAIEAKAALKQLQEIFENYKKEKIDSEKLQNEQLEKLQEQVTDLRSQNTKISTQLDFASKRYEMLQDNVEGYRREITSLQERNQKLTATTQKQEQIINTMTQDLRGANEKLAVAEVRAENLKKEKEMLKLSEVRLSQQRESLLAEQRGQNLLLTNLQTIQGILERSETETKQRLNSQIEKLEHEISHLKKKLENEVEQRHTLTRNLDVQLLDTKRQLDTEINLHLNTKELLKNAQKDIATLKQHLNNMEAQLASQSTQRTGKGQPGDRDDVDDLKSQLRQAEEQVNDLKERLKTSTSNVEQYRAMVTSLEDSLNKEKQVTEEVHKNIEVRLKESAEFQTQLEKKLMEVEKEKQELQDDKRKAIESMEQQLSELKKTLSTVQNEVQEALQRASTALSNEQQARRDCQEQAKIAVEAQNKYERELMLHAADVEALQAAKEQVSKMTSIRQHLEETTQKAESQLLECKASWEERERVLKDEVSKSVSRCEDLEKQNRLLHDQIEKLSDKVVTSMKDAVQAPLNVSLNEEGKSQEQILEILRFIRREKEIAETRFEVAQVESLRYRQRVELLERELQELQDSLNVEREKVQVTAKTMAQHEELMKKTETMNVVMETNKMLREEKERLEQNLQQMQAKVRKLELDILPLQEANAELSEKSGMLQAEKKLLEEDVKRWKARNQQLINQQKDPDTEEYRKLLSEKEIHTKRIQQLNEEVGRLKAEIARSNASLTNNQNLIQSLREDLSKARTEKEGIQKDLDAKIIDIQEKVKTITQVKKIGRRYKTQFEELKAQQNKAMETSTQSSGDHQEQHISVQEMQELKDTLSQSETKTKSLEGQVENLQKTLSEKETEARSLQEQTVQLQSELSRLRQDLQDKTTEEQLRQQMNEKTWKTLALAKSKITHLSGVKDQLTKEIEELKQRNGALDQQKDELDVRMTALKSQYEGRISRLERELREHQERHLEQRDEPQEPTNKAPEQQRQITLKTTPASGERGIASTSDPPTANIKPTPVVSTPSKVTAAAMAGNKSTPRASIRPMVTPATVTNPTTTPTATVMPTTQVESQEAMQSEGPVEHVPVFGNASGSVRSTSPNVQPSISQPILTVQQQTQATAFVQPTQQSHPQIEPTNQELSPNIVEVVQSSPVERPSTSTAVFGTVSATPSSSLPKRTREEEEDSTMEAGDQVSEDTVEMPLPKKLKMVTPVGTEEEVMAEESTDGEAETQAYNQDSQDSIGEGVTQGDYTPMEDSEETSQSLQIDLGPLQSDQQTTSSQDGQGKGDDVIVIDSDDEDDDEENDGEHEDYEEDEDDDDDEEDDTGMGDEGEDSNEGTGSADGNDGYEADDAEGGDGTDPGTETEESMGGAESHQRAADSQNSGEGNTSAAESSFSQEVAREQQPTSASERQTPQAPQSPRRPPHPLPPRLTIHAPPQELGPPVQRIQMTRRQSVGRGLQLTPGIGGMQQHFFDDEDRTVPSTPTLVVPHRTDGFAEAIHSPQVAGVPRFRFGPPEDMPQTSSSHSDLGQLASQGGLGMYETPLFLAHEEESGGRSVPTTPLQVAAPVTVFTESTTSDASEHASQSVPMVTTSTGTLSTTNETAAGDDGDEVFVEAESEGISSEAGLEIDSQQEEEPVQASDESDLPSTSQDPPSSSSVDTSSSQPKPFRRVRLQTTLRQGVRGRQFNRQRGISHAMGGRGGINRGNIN
UniProt O08970: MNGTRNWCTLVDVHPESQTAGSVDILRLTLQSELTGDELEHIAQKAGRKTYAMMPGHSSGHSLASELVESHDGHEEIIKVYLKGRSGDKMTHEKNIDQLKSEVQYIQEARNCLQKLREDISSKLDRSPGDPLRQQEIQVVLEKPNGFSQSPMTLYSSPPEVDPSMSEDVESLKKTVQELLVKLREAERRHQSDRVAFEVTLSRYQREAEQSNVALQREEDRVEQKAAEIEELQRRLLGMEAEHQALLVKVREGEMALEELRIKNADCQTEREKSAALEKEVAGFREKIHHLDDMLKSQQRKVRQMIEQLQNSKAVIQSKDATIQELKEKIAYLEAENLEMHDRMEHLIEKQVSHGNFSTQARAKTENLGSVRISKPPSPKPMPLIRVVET

Target | log2 fold change
UniProt O35286 (peptide sequence: YYDILKK, peptide start residue: 127) | 0.14
UniProt B9EJ57 (peptide sequence: ISASQIIENPR, peptide start residue: 322) | 0.179
UniProt G3UZ78 (peptide sequence: DTERADEIR, peptide start residue: 1380) | 0.0891
UniProt O35423 (peptide sequence: EALQHCPKNKL, peptide start residue: 404) | -0.48
UniProt D3Z6S9 (peptide sequence: AKEKALQK, peptide start residue: 389) | 0.0529
UniProt O09130 (peptide sequence: VLMSHYEEAMGLSGHK, peptide start residue: 366) | -0.463
UniProt O08677 (peptide sequence: ERFPSLHGDCVALPNGDDGECR, peptide start residue: 208) | -0.695
UniProt O08586 (peptide sequence: NHLDYRPVALLFHK, peptide start residue: 184) | 0.206
UniProt G3X982 (peptide sequence: CCLDEEKNEPER, peptide start residue: 182) | 0.188
UniProt O35177 (peptide sequence: QVAAQDIR, peptide start residue: 765) | 0.26
UniProt O08856 (peptide sequence: VLHLLALRPYRK, peptide start residue: 208) | -0.466
UniProt O09106 (peptide sequence: EKDPEEKK, peptide start residue: 450) | 0.502
UniProt O08755 (peptide sequence: ITTELKR, peptide start residue: 301) | -0.31
UniProt E9PVA8 (peptide sequence: VLVAVLLSR, peptide start residue: 568) | 0.266
UniProt O08529 (peptide sequence: KALEEAGFKLPCQLHQVIVAR, peptide start residue: 629) | -0.716
UniProt E2JF22 (peptide sequence: SKDVIQDPPEDLKPR, peptide start residue: 1867) | -0.12
UniProt O08795 (peptide sequence: HGGSPTSLGTWGSWAGPDHDKFSAMK, peptide start residue: 432) | -0.601
UniProt O09100 (peptide sequence: DGTGHYLCNACGLYHK, peptide start residue: 230) | -0.361

Target | log2 fold change
UniProt E9Q309 (peptide sequence: KVATAPPAPAYK, peptide start residue: 323) | 0.816
UniProt D3YZP9 (peptide sequence: MDKLEAEKR, peptide start residue: 214) | -0.336
UniProt K7N6K2 (peptide sequence: IQTGFNQLR, peptide start residue: 182) | -0.233
UniProt O08530 (peptide sequence: RPIIPGMEFSR, peptide start residue: 342) | -0.144
UniProt F6ZDS4 (peptide sequence: KLLEEDVK, peptide start residue: 1400) | 0.528
UniProt O08811 (peptide sequence: GAILLSVAR, peptide start residue: 593) | 0.36
UniProt O09039 (peptide sequence: ESLAGPPGHDYR, peptide start residue: 77) | -0.535
UniProt O08970 (peptide sequence: QVSHGNFSTQAR, peptide start residue: 351) | 0.461
UniProt O08740 (peptide sequence: ITINKDTK, peptide start residue: 19) | -0.474
UniProt O08917 (peptide sequence: LTGVSISQVNHNKPLR, peptide start residue: 411) | -0.179
UniProt O08999 (peptide sequence: GSCSRPQVCICR, peptide start residue: 193) | 0.000336
UniProt O35375 (peptide sequence: STWISSANPNDR, peptide start residue: 667) | -0.183
UniProt D3Z5L6 (peptide sequence: AQNSLGTEEER, peptide start residue: 441) | -0.0312
UniProt O08580 (peptide sequence: CLPGHKEEEDGEGAGSGEQGSGK, peptide start residue: 46) | 0.638
UniProt O35426 (peptide sequence: VLLLSGQPASGGR, peptide start residue: 17) | -0.353
UniProt E9QAM5 (peptide sequence: YQVCHYYRPGLGCR, peptide start residue: 88) | 0.506
UniProt E9Q394 (peptide sequence: RAETFGGFDCHQMNASK, peptide start residue: 2428) | -0.284
UniProt B8JKV0 (peptide sequence: SCDISDVALQHLCK, peptide start residue: 70) | 0.577

Taken from above.
log2 fold change with UniProt O08530 (peptide sequence: RPIIPGMEFSR, peptide start residue: 342) is entered as -0.144
log2 fold change with UniProt O08580 (peptide sequence: CLPGHKEEEDGEGAGSGEQGSGK, peptide start residue: 46) is entered as 0.638

— the supplement of paper PMC12819154, “High-throughput peptide-centric local stability assay extends protein–ligand identification to membrane proteins, tissues and bacteria” (Nature Structural & Molecular Biology, 2025)
